For two molecules, binding results are on record in article PMC12080402.

These are yes or no findings as the source states them, for the method shown. Binding seen in cells or lysates may run through a third protein. Some entries that bind do so weakly or less than the wild type.

The target of experiment [1] is T1, Barrier to Autointegration Factor 1 (BANF1) (human (endogenous in HT-29 and HCT-116)) (UniProt O75531).
T1 sequence: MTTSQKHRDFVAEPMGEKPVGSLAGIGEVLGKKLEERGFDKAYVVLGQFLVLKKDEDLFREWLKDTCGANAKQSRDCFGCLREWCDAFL
Put plainly: co-IP; HT-29 and HCT-116 cell lysates, pre-cleared with protein A/G beads, incubated overnight with a VRK1- or BANF1-specific antibody, captured on Protein A/G beads, washed three times, eluted with high salt, Western blot.

Experiment [2] addresses T2, vaccinia-related kinase 1 (VRK1) (human (endogenous in HT-29 and HCT-116)) (UniProt Q99986).
T2 sequence: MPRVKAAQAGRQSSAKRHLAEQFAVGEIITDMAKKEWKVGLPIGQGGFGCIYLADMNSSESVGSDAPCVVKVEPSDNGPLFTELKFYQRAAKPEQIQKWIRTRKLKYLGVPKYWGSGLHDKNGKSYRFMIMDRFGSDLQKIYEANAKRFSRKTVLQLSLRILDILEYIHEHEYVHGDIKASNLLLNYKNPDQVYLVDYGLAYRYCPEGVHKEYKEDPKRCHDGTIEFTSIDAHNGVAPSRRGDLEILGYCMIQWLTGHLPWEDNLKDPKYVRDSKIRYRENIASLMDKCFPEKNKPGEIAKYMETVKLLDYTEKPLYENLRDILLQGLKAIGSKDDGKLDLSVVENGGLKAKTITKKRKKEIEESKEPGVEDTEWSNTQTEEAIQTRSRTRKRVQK
The description is as above.

B1: vaccinia-related kinase 1 (VRK1) (protein, UniProt Q99986 1-396)
chain: T2 sequence
Turning to B1, the binding result in experiment [1] is “binds”.

B2: Barrier to Autointegration Factor 1 (BANF1) (protein, UniProt O75531 1-89)
chain: T1 sequence
Regarding B2, the binding result in experiment [2] is given as “binds”.
